Data: US8710091B2, “Imidazolidine-2,4-dione derivatives, and use thereof as a cancer drug” (Ipsen Pharma S.A.S., priority 2009, dated 2014)
Some results were stated once for a whole list of compounds, not compound by compound. At least one structure is not confirmed: it was looked up by name or label, or the drawing left a doubt.

Experiments:
LNCaP cells = test: Anti-proliferative activity on LNCaP in complete medium (WST-1); format: cell-based; conditions: 144 h incubation, read-out: IC50 on the LNCaP cells in culture (concentration inhibiting cell proliferation by 50%)
Method: The anti-proliferative activity of the compounds of the present invention is determined on LNCaP in complete medium by applying the following experimental procedure:
The LNCaP cell type (ATCC, 1740) originating from a prostate carcinoma expressing the androgen receptor, this line is hormone-dependent.
Maintenance of the LNCaP line is carried out in complete culture medium: RPMI, 10% of foetal calf serum, 2 mM glutamine, 100 U/ml penicillin, 0.1 mg/ml of streptomycin and 0.01M HEPES, 1 mM sodium pyruvate, 40% of D-glucose. • Seeding the plates:
The LNCaP line is seeded at 20,000 cells/well in 90 μl of complete medium in 96-well plates coated with poly-D-lysine (Biocoat, Costar). • Treatment of the cells: 24 h after the seeding, the cells are treated with 10 μl/well of compound diluted in the culture medium. Experiments of the effect of doses of the compound are carried out on a scale of 1 nM to 100 µM. The concentrations used are the following: 1 nM/10/30/100/300/1000/3000/10,000/100,000 nM. Testosterone (SIGMA T1500) is used as a reference and tested at the same concentrations. The cells are incubated for 144 h at 37° C., 5% CO2. • Reading: On D6, 10 μL of the “WST-1 cell proliferation” reagent (Roche ref 1644807) is added to each well. After incubation for 2 hours at 37° C., 5% CO2, the absorbance at 450 nm is measured by spectrophotometry (Envision, Perkin Elmer). • Results: The experiments are carried out in duplicate and the best compounds are tested twice. […] 2. Antiproliferative Activity on LNCaP in Medium without Steroids: […]

DU145 cells = test: Antiproliferative activity on DU-145 in complete medium (WST-1); format: cell-based; conditions: 144 h incubation, read-out: IC50 on the DU145 cells in culture (concentration inhibiting cell proliferation by 50%)
Method: The anti-proliferative activity of the compounds of the present invention is determined on DU-145 in complete medium.
Maintenance of the DU-145 line is carried out in DMEM, 10% of foetal calf serum, 2 mM of glutamine, 100 U/ml of penicillin, 0.1 mg/ml of streptomycin. • Seeding the plates: • The DU145 line is seeded at 400 or 800 cells/well in 90 μl of DMEM complete medium in 96-well plates (TPP). • Treatment of the cells: 24 h after the seeding, the cells are treated with 10 μl/well of compound diluted in the culture medium. Experiments showing the dose-effect of the compound are carried out on a scale of 1 nM to 100 μM. The concentrations used are the following: 1 nM/10/30/100/300/1000/3000/10,000/100,000 nM. The cells are incubated for 144 h at 37° C., 5% CO2. • Reading: On D6, 10 μL, of cell proliferation reagent WST-1 (Roche ref 1644807) is added to each well. After incubation for 2 to 4 hours at 37° C., 5% CO2, the absorbance at 450 nm is measured by spectrophotometry (Envision, Perkin Elmer). • Results: The experiments are carried out in duplicate and the best compounds are tested twice. […] 4. Measurement of the Disappearance of the Androgen Receptor

Molecule	IC50 (LNCaP cells) [nM]	IC50 (DU145 cells) [nM]
CC1(C)C(=O)N(c2ccc([N+](=O)[O-])c(C(F)(F)F)c2)C(=O)N1CCCCCCCCC[S+]([O-])CCC(F)(F)C(F)(F)C(F)(F)C(F)(F)F (stereo not drawn) [Example 15, 5,5-dimethyl-3-[4-nitro-3-(trifluoromethyl)phenyl]-1-{9-[(3,3,4,4,5,5,6,6,6-nonafluorohexyl)sulphinyl]nonyl}imidazolidine-2,4-dione]	< 1000	
CC1(C)C(=O)N(c2ccc([N+](=O)[O-])c(C(F)(F)F)c2)C(=O)N1CCCCCCCCCS(=N)(=O)CCCC(F)(F)C(F)(F)F (stereo not drawn) [Example 46, 5,5-dimethyl-3-[4-nitro-3-(trifluoromethyl)phenyl]-1-{9-[S-(4,4,5,5,5-pentafluoropentyl)sulphonimidoyl]nonyl}imidazolidine-2,4-dione]	< 1000	
Cc1cc(N2C(=O)N(CCCCCCCCC[S+]([O-])CCCC(F)(F)C(F)(F)F)C(C)(C)C2=O)ccc1[N+](=O)[O-] (stereo not drawn) [Example 24, 5,5-dimethyl-3-(3-methyl-4-nitrophenyl)-1-{9-[(4,4,5,5,5-pentafluoropentyl)sulphinyl]nonyl}imidazolidine-2,4-dione]	< 1000	
CC1(C)C(=O)N(c2ccc(C#N)c(C(F)(F)F)c2)C(=O)N1CCCCCCCCC[S+]([O-])CCCC(F)(F)C(F)(F)F (stereo not drawn) [Example 20, 4-(4,4-dimethyl-2,5-dioxo-3-{9-[(4,4,5,5,5-pentafluoropentyl)sulphinyl]nonyl}imidazolidin-1-yl)-2-(trifluoromethyl)benzonitrile]	< 1000	
CC(=O)Nc1ccc(N2C(=O)N(CCCCCCCCCSCCCC(F)(F)C(F)(F)F)C(C)(C)C2=O)cc1C(F)(F)F [Example 17]	< 1000	> 10000
CC1(C)C(=O)N(c2ccc([N+](=O)[O-])c(C(F)(F)F)c2)C(=O)N1CCCCCCCCCS(=O)(=O)CCCC(F)(F)C(F)(F)F [Example 3, 5,5-dimethyl-3-[4-nitro-3-(trifluoromethyl)phenyl]-1-{9-[(4,4,5,5,5-pentafluoropentyl)sulphonyl]nonyl}imidazolidine-2,4-dione]	< 1000	
O=C1N(c2ccc([N+](=O)[O-])c(C(F)(F)F)c2)C(=O)C2(CCC2)N1CCCCCCCCC[S+]([O-])CCCC(F)(F)C(F)(F)F (stereo not drawn) [Example 34, 7-[4-nitro-3-(trifluoromethyl)phenyl]-5-{9-[(4,4,5,5,5-pentafluoropentyl)sulphinyl]nonyl}-5,7-diazaspiro[3.4]octane-6,8-dione]	< 1000	
N-[4-(4,4-dimethyl-2,5-dioxo-3-{9-[(4,4,5,5,5-pentafluoropentyl)sulphinyl]nonyl}imidazolin-1-yl)-2-(trifluoromethyl)phenyl]methanesulphonamide [Example 41]	< 1000	> 10000
Cc1cc(N2C(=O)N(CCCCCCCCCS(=O)(=O)CCCC(F)(F)C(F)(F)F)C(C)(C)C2=O)ccc1NS(N)(=O)=O [Example 32, N-[4-(4,4-dimethyl-2,5-dioxo-3-{9-[(4,4,5,5,5-pentafluoropentyl)sulphonyl]nonyl}imidazolidin-1-yl)-2-methylphenyl]sulphamide]	< 1000	
CC1(C)C(=O)N(c2ccc(C(N)=O)c(C(F)(F)F)c2)C(=O)N1CCCCCCCCC[S+]([O-])CCCC(F)(F)C(F)(F)F (stereo not drawn) [Example 22, 4-(4,4-dimethyl-2,5-dioxo-3-{9-[(4,4,5,5,5-pentafluoropentyl)sulphinyl]nonyl}imidazolidin-1-yl)-2-(trifluoromethyl)benzamide]	< 1000	
